Measured values reported in US20020099177A1 (Human Genome Sciences, published 2002).
No constants are given. Whether binding was seen depends on the method and setting. In cells and extracts the contact can be indirect. Some results given as binding are weak or reduced against the parent protein; the word gives no strength. Where a sequence is shown, tags or fusion partners need not be part of it.

The chains behind the UniProt entries cited, without tags or fusion partners.
UniProt Q99836: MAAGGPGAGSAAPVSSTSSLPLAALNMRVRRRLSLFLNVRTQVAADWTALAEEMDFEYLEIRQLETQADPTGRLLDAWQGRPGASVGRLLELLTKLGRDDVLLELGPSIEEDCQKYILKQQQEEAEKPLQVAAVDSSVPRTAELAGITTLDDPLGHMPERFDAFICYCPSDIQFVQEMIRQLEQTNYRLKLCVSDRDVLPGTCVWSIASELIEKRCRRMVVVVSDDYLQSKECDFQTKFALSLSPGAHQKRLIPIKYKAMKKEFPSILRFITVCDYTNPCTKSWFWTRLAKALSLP

T1: IRAK-2 (IRAK-2α; IRAK-2-MyC expression construct) (human) (UniProt O43187)
T1 sequence: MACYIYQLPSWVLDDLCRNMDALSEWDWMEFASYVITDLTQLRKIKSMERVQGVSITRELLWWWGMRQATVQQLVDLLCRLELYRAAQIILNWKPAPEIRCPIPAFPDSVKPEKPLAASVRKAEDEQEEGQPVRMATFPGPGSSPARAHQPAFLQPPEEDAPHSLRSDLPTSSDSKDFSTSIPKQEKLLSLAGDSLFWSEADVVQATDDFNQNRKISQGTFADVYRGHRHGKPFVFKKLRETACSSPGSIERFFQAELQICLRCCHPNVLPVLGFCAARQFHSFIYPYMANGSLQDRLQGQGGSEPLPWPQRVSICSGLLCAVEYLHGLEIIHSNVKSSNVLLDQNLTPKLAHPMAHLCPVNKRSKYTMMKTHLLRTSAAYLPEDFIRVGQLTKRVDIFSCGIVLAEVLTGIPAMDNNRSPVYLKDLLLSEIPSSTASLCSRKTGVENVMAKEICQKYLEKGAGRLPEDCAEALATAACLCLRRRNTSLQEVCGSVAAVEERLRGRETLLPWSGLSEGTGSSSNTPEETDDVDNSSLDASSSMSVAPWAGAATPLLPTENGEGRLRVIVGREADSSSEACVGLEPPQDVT

T2: IL-1 receptor type I (Flag-IL-1RI) (human, UniProt P14778 18-569)
T2 construct: not shown: Flag tag from pCMV-1-Flag expression vector
T2 sequence (looked up): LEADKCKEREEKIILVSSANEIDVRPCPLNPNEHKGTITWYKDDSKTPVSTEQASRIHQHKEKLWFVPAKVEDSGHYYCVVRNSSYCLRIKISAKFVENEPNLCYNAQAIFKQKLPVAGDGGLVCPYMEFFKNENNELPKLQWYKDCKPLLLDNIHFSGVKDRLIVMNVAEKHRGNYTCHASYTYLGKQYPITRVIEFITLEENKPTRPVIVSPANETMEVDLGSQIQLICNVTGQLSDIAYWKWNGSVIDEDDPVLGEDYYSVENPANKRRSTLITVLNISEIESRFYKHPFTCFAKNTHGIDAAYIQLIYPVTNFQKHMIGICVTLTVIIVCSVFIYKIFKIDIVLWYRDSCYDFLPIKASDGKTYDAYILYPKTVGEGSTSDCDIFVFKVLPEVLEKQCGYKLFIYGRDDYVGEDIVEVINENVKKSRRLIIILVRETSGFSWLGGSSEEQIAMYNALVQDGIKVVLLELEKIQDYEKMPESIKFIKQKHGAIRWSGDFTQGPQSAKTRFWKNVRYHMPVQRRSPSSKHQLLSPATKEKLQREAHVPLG


Experiments:
[1] = target: T1, IRAK-2 (IRAK-2α; IRAK-2-MyC expression construct) (human); test: coimmunoprecipitation from transfected cell lysates
[2] = target: T2, IL-1 receptor type I (Flag-IL-1RI); test: coimmunoprecipitation from transfected 293/293T cell lysates
Method: The total amount of DNA was kept constant. 24-36 hours after transfection, cells were lysed in 0.5 ml buffer (1% NP40, 150 mM NaCl, 50 mM Tris, 1 mM EDTA and protease inhibitors cocktail). Cell lysates were adjusted to 0.7 M NaCl and the indicated antibodies were added for 1 to 4 hours. Immune complexes were precipitated by the addition of protein-G-Sepharose (Sigma). After extensive washing, the Sepharose heads were boiled in sample buffer and the eluted proteins fractionated by SDS-PAGE. Subsequent protein immunoblotting was performed as described (Chinnaiyan, A., et al., Cell 81:505-12 (1995)).

[3] = target: T1, IRAK-2 (IRAK-2α; IRAK-2-MyC expression construct) (human); test: coimmunoprecipitation, coexpressed in 293T cells

Molecule	binding [2]	also measured
MyD88 (AU1-MyD88) (from UniProt Q99836 1-296)		binding [1]: binds
IRAK-2 (IRAK-2α; IRAK-2-MyC expression construct) (enzyme, not shown: small tags and cut ends) MACYIYQLPSWVLDDLCRNMDALSEWDWMEFASYVITDLTQLRKIKSMERVQGVSITRELLWWWGMRQATVQQLVDLLCRLELYRAAQIILNWKPAPEIRCPIPAFPDSVKPEKPLAASVRKAEDEQEEGQPVRMATFPGPGSSPARAHQPAFLQPPEEDAPHSLRSDLPTSSDSKDFSTSIPKQEKLLSLAGDSLFWSEADVVQATDDFNQNRKISQGTFADVYRGHRHGKPFVFKKLRETACSSPGSIERFFQAELQICLRCCHPNVLPVLGFCAARQFHSFIYPYMANGSLQDRLQGQGGSEPLPWPQRVSICSGLLCAVEYLHGLEIIHSNVKSSNVLLDQNLTPKLAHPMAHLCPVNKRSKYTMMKTHLLRTSAAYLPEDFIRVGQLTKRVDIFSCGIVLAEVLTGIPAMDNNRSPVYLKDLLLSEIPSSTASLCSRKTGVENVMAKEICQKYLEKGAGRLPEDCAEALATAACLCLRRRNTSLQEVCGSVAAVEERLRGRETLLPWSGLSEGTGSSSNTPEETDDVDNSSLDASSSMSVAPWAGAATPLLPTENGEGRLRVIVGREADSSSEACVGLEPPQDVT	binds	
IRAK-2 (1-96) (protein, not shown: small tags and cut ends) MACYIYQLPSWVLDDLCRNMDALSEWDWMEFASYVITDLTQLRKIKSMERVQGVSITRELLWWWGMRQATVQQLVDLLCRLELYRAAQIILNWKPA	binds	
TRAF6 (298-522), dominant negative version of TRAF6 (protein, UniProt Q9Y4K3 289-522, looked up, not shown: small tags and cut ends) ISEVRNFQETIHQLEGRLVRQDHQIRELTAKMETQSMYVSELKRTIRTLEDKVAEIEAQQCNGIYIWKIGNFGMHLKCQEEEKPVVIHSPGFYTGKPGYKLCMRLHLQLPTAQRCANYISLFVHTMQGEYDSHLPWPFQGTIRLTILDQSEAPVRQNHEEIMDAKPELLAFQRPTIPRNPKGFGYVTFMHLEALRQRTFIKDDTLLVRCEVSTRFDMGSLRREGFQPRSTDAGV		binding [3]: binds
